Results from PMC10410066.
Where a chain is given by its changes, count along the chain named. Numbers in names are those of the source. No constants are given. Whether binding was seen depends on the method and setting. Binding can be weak; no strength is given. Tags and fused reporters may be left off the sequences shown. For some of these results: Binding seen in cells or lysates may run through a third protein.

B1: inhibitor of nuclear factor kappa B kinase subunit beta (IKBKB), FLAG-tagged (enzyme, UniProt O14920 1-756)
chain: MSWSPSLTTQTCGAWEMKERLGTGGFGNVIRWHNQETGEQIAIKQCRQELSPRNRERWCLEIQIMRRLTHPNVVAARDVPEGMQNLAPNDLPLLAMEYCQGGDLRKYLNQFENCCGLREGAILTLLSDIASALRYLHENRIIHRDLKPENIVLQQGEQRLIHKIIDLGYAKELDQGSLCTSFVGTLQYLAPELLEQQKYTVTVDYWSFGTLAFECITGFRPFLPNWQPVQWHSKVRQKSEVDIVVSEDLNGTVKFSSSLPYPNNLNSVLAERLEKWLQLMLMWHPRQRGTDPTYGPNGCFKALDDILNLKLVHILNMVTGTIHTYPVTEDESLQSLKARIQQDTGIPEEDQELLQEAGLALIPDKPATQCISDGKLNEGHTLDMDLVFLFDNSKITYETQISPRPQPESVSCILQEPKRNLAFFQLRKVWGQVWHSIQTLKEDCNRLQQGQRAAMMNLLRNNSCLSKMKNSMASMSQQLKAKLDFFKTSIQIDLEKYSEQTEFGITSDKLLLAWREMEQAVELCGRENEVKLLVERMMALQTDIVDLQRSPMGRKQGGTLDDLEEQARELYRRLREKPRDQRTEGDSQEMVRLLLQAIQSFEKKVRVIYTQLSKTVVCKQKALELLPKVEEVVSLMNEDEKTVVRLQEKRQKELWNLLKIACSKVRGPVSGSPDSMNASRLSQPGQLMSQPSTASNSLPEPAKKSEELVAEAHNLCTLLENAIQDTVREQDQSFTALDWSWLQTEEEEHSCLEQAS
B2: IKBKB kinase-dead mutant (IKBKB KD, K44M), FLAG-tagged (enzyme, UniProt O14920 1-756)
chain: B1 chain with K44M
B3: IKBKB S177E/S181E mutant, FLAG-tagged (enzyme, UniProt O14920 1-756)
chain: B1 chain with S177E, S181E

Experiments:
[1] = target: N571 Q55 HTT (N-terminal huntingtin fragment 1-571 with 55 glutamines) (human); assay: ELISA; 2B7 (HTT N17) as capture antibody on the plate, anti-FLAG-D2 as detection antibody; lysates of HEK293T cells co-expressing N571 Q55 HTT and FLAG-tagged kinase; 1 h at RT; read on the Erenna Immunoassay System
[2] = target: N571 Q55 HTT (N-terminal huntingtin fragment 1-571 with 55 glutamines) (human); assay: FRET or BRET; TR-FRET protein-protein interaction assay on lysates of co-transfected HEK293T cells; antibody pair 2B7-Tb (HTT N17) / anti-FLAG-D2

Binder | binding [1] | binding [2]
B1 | binds | binds
B2 | binds | 
B3 | binds | 
